Reference: PubChem BioAssay AID686943 (Drosophila RNAi Screening Center, 2013)

Assay: 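Search across the genome for regulators of signalling from receptor tyrosine kinase to ERK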 (primary screen)
System: Drosophila S2R+ haemocyte-like cells expressing YFP-tagged ERK (Rolled)
Knock-down reagent: long dsRNA against Drosophila genes
Challenge: insulin stimulation versus unstimulated cells; dose and duration not given
Read-out: 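Antibody staining for doubly phosphorylated ERK divided by ERK-YFP signal, as plate z-scores, in insulin-treated and untreated cells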
Reading the numbers: replicate 1, z-score of dpERK with insulin and replicate 2, z-score of dpERK with insulin: higher = more active ERK per ERK-YFP after insulin; replicate 1, z-score of dpERK under basal conditions: higher = more basal active ERK per ERK-YFP
The screen tested about 23,000 reagents; shown is an unselected part of those with a known target gene and a result. 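Extra replicates exist only for a retested subset of genes; insulin dose and duration not given; both raised and lowered dpERK matter.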 A plus sign joins genes that one reagent is predicted to hit. Not all columns of the deposit are shown. Not stated in the record: the amount of reagent, the time to read-out.

The opening 2 entries as a preview:
Gene	dsRNA	replicate 1, z-score of dpERK with insulin	replicate 2, z-score of dpERK with insulin	replicate 1, z-score of dpERK under basal conditions
Lamtor3 (Late endosomal/lysosomal adaptor, MAPK and MTOR activator 3)	DRSC02815	-0.8	-1.39	-0.44
CG16782	DRSC18118	1.23	0	2.07

Main list, from the start:
Gene	dsRNA	replicate 1, z-score of dpERK with insulin	replicate 2, z-score of dpERK with insulin	replicate 1, z-score of dpERK under basal conditions
Lamtor3 (Late endosomal/lysosomal adaptor, MAPK and MTOR activator 3)	DRSC02815	-0.8	-1.39	-0.44
CG16782	DRSC18118	1.23	0	2.07
RpS5b (Ribosomal protein S5b)	DRSC16173	0.42	0.65	-1.88
CG18135	DRSC10295	0.41	1.26	0.92
CG9410 + CG15908	DRSC04976	0.63	-0.23	0.29
CG9410 + CG15908	DRSC05001	0.25	0.41	0.1
CG18659	DRSC06784	0.02	0.01	1.49
CG12343	DRSC06135	0.64	0.39	-0.26
CG11970	DRSC14157	0.06	0.18	-0.71
Mnat9 (microtubule-associated Nat9)	DRSC14325	-0.29	-0.22	0.34
jp (junctophilin)	DRSC02213	0.16	0.26	1.18
jp (junctophilin)	DRSC02744	0.53	0.04	-1.1
CG3408	DRSC10360	0.34	0.63	0.55
Tep5Psi (Thioester-containing protein 5 pseudogene)	DRSC02183	0.68	0.03	0.53
Tep5Psi (Thioester-containing protein 5 pseudogene)	DRSC02184	0.08	-1	-0.83
CG14717	DRSC14940	0.75	1.26	0.24
trn (tartan)	DRSC11407	-0.43	0.12	-1.17
CG13053	DRSC09934	0.76	-0.19	-0.63
jigr1 (jing interacting gene regulatory 1)	DRSC13724	0.89	0.63	0.59
jigr1 (jing interacting gene regulatory 1)	DRSC15233	0.46	0	1.08
jigr1 (jing interacting gene regulatory 1)	DRSC22617	-0.24	-0.13	-0.58
Arpc3A (Actin-related protein 2/3 complex, subunit 3A)	DRSC15596	-0.23	0.54	0.14
Obp50d (Odorant-binding protein 50d)	DRSC05483	0.34	-0.16	0.19
CG6843	DRSC10725	0.26	-0.1	0.16
Mipp2 (Multiple inositol polyphosphate phosphatase 2)	DRSC18682	0.47	0.36	0.41
Doc1 (Dorsocross1)	DRSC11146	-0.27	0.09	-0.17
Idgf4 (Imaginal disc growth factor 4)	DRSC18675	-0.2	0.03	-0.75
DopEcR (Dopamine/Ecdysteroid receptor)	DRSC08529	-0.28	0.68	0.8
Clc (Clathrin light chain)	DRSC11116	0.19	0	0.75
Cpr35B (Cuticular protein 35B)	DRSC01949	0.63	1.09	0.46
Cpr35B (Cuticular protein 35B)	DRSC22797	-0.09	0.02	0.41
CG9503	DRSC20186	0.8	0.45	0.26
CG9503	DRSC21766	0.27	-0.38	0.69
Dhc1 (Dynein heavy chain 1)	DRSC12748	0.92	0.81	0.64
Dhc1 (Dynein heavy chain 1)	DRSC16503	0.21	0.62	0.7
CycK (Cyclin K)	DRSC03714	1.79	1.46	-1.42
CG13747	DRSC06418	-3.19	-0.48	2.47
Npc1a (Niemann-Pick type C-1a)	DRSC03378	0.15	-0.46	-0.33
Sardh (Sarcosine dehydrogenase)	DRSC06981	-1.01	-1.95	1.27
